Reference: patent US6593300B1 (Gyogyszerkutato Intezet Kft., priority 1997, dated 2003)

Experiment: general procedure: solution-phase peptide synthesis; dicyclohexylcarbodiimide / N-hydroxy-benzotriazole
Conditions: coupling step

Substance | step yield
(3R)-3-(Acetyl-L-tyrosyl-L-isoleucyl-L-alanyl-amino)-4-t-butoxycarbonyl-butyraldehyde Diethyl Acetal | 96%
(3R)-3-(Ethoxycarbonyl-L-tyrosyl-L-isoleucyl-L-alanylamino)-4-t-butoxycarbonyl-butyraldehyde-diethyl Acetal | 73%
(3R)-3-(L-Lactyl-L-tyrosyl-L-isoleucyl-L-alanyl-amino)-4-t-butoxycarbonyl-butyraldehyde Diethyl Acetal | 30%

Same assay, conditions: late stage modification step

Substance | step yield
(3R) -(Acetyl-L-tyosyl-L-valyl-L-alanylamino)-4-carboxybutyraidehyde | 95%
(3R)-3-(Acetyl-L-tyrosyl-L-isoleucyl-L-alanylamino)-4-carboxybutyraldehyde | 95%
(3R)-3-(Ethoxycarbonyl-L-tyrosyl-L-isoleucyl-L-alanylamino)-4-carboxybutyraldehyde | 87%
(3R)-3-(L-Lactyl-L-tyrosyl-L-isoleucyl-L-alanylamino)-4-carboxy-butyraldehyde | 42%
